Source: PubChem BioAssay AID445 (National Center for Advancing Translational Sciences (NCATS), 2006)
Some of the results follow. Further columns of the screen follow, without active or inactive calls. Most of these compounds were active or inconclusive in the main read-out, so they are no random draw. Words in brackets tell the shape of the fitted curve; partial curves, single points and poor fits give uncertain potencies.

Test: IkB Signaling
Conditions: ABC-DLBCL IkBa-CBG/CBR dual luciferase ratio (green luciferase fused to IkBa over red control in OCI-Ly3 lymphoma cells), 4 h; measured here: control luc red channel unless noted
Procedure, shortened: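 In this assay, an IκBα–CBG68 fusion accumulates when IKK-driven degradation is blocked; native CBR normalizes for cell number. OCI-Ly3 cells were treated 4 h with compound and doxycycline, then green and red light read after Chroma-Glo addition.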

Row | SMILES | AC50
1 | Cc1cccc(-n2c(SCC(=O)Nc3ccccc3C)nc3c(oc4ccccc43)c2=O)c1 | 6.31 µM [falling, partial curve]
2 | COc1ccccc1NC(=O)Nc1ccc2c(c1)OCCO2 | 7.94 µM [falling, partial curve]
3 | CCn1cc2nc(SCc3cccc(F)c3)n(CCc3ccccc3)c(=O)c2n1 | 31.6 µM [falling, single point]
4 | O=C(O)CCn1ccc2cc(S(=O)(=O)N3CCCCC3)ccc21 | 0.01 µM [falling, full curve]
5 | COc1ccc(Cl)cc1NC(=O)CCCS(=O)(=O)c1nc(-c2ccc(OC)c(OC)c2)cc(C(F)(F)F)n1 | 6.31 µM [falling, full curve]
6 | Cc1cc(C)n2c(Nc3cccc(C(F)(F)F)c3)c(-c3ccsc3)nc2n1 | 25.1 µM [falling, partial curve]
7 | Cc1ccc2oc(=O)c3cc(C(=O)Nc4cccc(C#N)c4)sc3c2c1 | 6.31 µM [rising, partial curve, poor fit]
8 | O=C(CN1CCN(c2ccc(Cl)cc2)CC1)Nc1ccc(F)c(F)c1 | 2 µM [falling, full curve]
9 | Cc1cc(C)cc(-n2ccnc2SCC(=O)Nc2ccc(C)c(Cl)c2)c1 | 7.94 µM [falling, partial curve]
10 | COc1ccc(NC(=O)c2[nH]nc3c2CSc2ccccc2-3)c(OC)c1 | 10 µM [falling, partial curve]
11 | Cc1ccc(-c2n[nH]c3c2C(c2cccs2)N(c2ccc(Cl)cc2)C3=O)cc1 (stereo not given) | 10 µM [falling, partial curve]
12 | Cc1ccc(C)c(C(=O)CSc2nc3cc(C(=O)NC4CCCC4)ccc3c(=O)n2CC2CCCO2)c1 (stereo not given) | 3.16 µM [falling, full curve, poor fit]
13 | Cc1cc(C)nc(N2CCC(C(=O)N3CCN(c4cc(Cl)ccc4C)CC3)CC2)n1 | 15.8 µM [falling, partial curve]
14 | Cc1ccc(-c2nc3cc(NC(=O)c4cc(Br)ccc4Cl)ccc3o2)cc1 | 10 µM [falling, partial curve]
15 | CC(C)CCNC(=O)c1ccc2c(c1)N(C)C(=O)c1ccccc1S2 | 3.98 µM [rising, partial curve]
16 | CC1CCN(S(=O)(=O)c2cn(CC(=O)Nc3ccc(F)cc3)c(=O)c3ccccc23)CC1 | 12.6 µM [falling, partial curve]
17 | COc1ccc(N2CCN(Cc3nc(-c4ccc(C)cc4)no3)CC2)cc1 | 20 µM [falling, partial curve]
18 | CCOc1cc2[nH]c(=O)n(CCCCCC(=O)NC(C)CC)c(=O)c2cc1OCC (stereo not given) | 0.2 µM [falling, full curve, poor fit]
19 | COc1ccc(C2c3c(-c4ccc(F)cc4)n[nH]c3C(=O)N2c2ccccc2)cc1OC (stereo not given) | 20 µM [falling, partial curve]
20 | CCOc1ccc(CCNC(=O)c2cc3c(-c4ccccc4F)nn(C)c3s2)cc1OCC | 10 µM [falling, partial curve]

Exported tab-delimited: part of the list above.
Row	SMILES	AC50
5	COc1ccc(Cl)cc1NC(=O)CCCS(=O)(=O)c1nc(-c2ccc(OC)c(OC)c2)cc(C(F)(F)F)n1	6.31 µM [falling, full curve]
6	Cc1cc(C)n2c(Nc3cccc(C(F)(F)F)c3)c(-c3ccsc3)nc2n1	25.1 µM [falling, partial curve]
7	Cc1ccc2oc(=O)c3cc(C(=O)Nc4cccc(C#N)c4)sc3c2c1	6.31 µM [rising, partial curve, poor fit]

(further entries)

Row | SMILES | AC50
21 | Cc1ccccc1CNC(=O)CCSCc1cnn(-c2ccccc2)c1-n1cccc1 | 3.16 µM [falling, single point]
22 | Oc1c(Cl)cc(Cl)cc1Sc1cc(Cl)cc(Cl)c1O | 0.631 µM [falling, full curve]
23 | O=C(COc1ccccc1)Nc1ccc2nc(SCC(=O)N3CCCC3)sc2c1 | 39.8 µM [falling, single point]
24 | Cn1c(CCN2CCCCCC2)nc2cc(NC(=O)Nc3ccccc3)ccc21 | 12.6 µM [falling, partial curve]
25 | Fc1ccc(N2CCN(c3ncnc4c3nc3n4CCCC3)CC2)cc1 | 39.8 µM [falling, single point]
26 | CCOC(=O)N1CCN(S(=O)(=O)c2ccc(F)c(C(=O)Nc3cc(C)cc(C)c3)c2)CC1 | 7.94 µM [falling, partial curve]
27 | Cn1cc(S(=O)(=O)N2CCCCC2)cc1C(=O)NCc1ccc(Cl)cc1 | 12.6 µM [falling, partial curve]
28 | CCCCSc1nnc2c(n1)OC(c1ccc(C)s1)Nc1ccccc1-2 (stereo not given) | 25.1 µM [falling, single point]
29 | CCCN(C(=O)c1cn(CC(C)C)c(=O)c2cc(OC)c(OC)cc12)c1cccc(C)c1 | 2.51 µM [falling, partial curve]
30 | Cc1cc(S(=O)(=O)Nc2ccc3[nH]c(=O)sc3c2)ccc1F | 10 µM [falling, partial curve]
31 | Cc1ccc(S(=O)(=O)N(CC(=O)Nc2c(C)cccc2C)c2cccc(Cl)c2)cc1 | 20 µM [falling, single point]
32 | COc1ccc2[nH]cc(CCNc3ncncc3-c3ccc4c(c3)OCO4)c2c1 | 3.16 µM [falling, single point]
33 | COC(=O)c1cc(C)nc2c1c(=O)nc(SCc1c(C)cc(C)cc1C)n2C1CC1 | 31.6 µM [falling, partial curve]
34 | CCc1ccc(NC(=O)CSc2nc3ccccc3c(=O)n2CCC(=O)NC2CCCCC2)cc1 | 7.94 µM [rising, full curve, poor fit]
35 | CCc1ccc(-c2nc(CN3CCC(C(=O)N4CCN(c5ccccc5)CC4)CC3)c(C)o2)cc1 | 15.8 µM [falling, partial curve]
36 | CCC(=O)N1c2ccc(S(=O)(=O)N3CCCCCC3)cc2CC1C (stereo not given) | 12.6 µM [rising, partial curve]
37 | Cc1ccc(NC(=O)COc2ccc(-c3nn(C)c(=O)c4ccccc34)cc2)c(C)c1 | 25.1 µM [falling, single point]
38 | CCOc1ccc(CCNC(=O)C2CCN(Cc3nc(-c4ccccc4C)oc3C)CC2)cc1OCC | 12.6 µM [falling, single point]
39 | Fc1ccc(Nc2c(-c3ccco3)nc3ccccn23)cc1 | 10 µM [falling, partial curve]
40 | Cn1c(=O)c(=O)n(C)c2cc(S(=O)(=O)Nc3ccc(Cl)c(C(F)(F)F)c3)ccc21 | 10 µM [falling, partial curve]
